According to the supplement of paper PMC10849652:
The list shows a part of the results.

Sequences of proteins named here, by UniProt entry; tags and fusion partners are left off. A change or cut given only in a name is not applied to a line headed by its entry.
UniProt Q8N806: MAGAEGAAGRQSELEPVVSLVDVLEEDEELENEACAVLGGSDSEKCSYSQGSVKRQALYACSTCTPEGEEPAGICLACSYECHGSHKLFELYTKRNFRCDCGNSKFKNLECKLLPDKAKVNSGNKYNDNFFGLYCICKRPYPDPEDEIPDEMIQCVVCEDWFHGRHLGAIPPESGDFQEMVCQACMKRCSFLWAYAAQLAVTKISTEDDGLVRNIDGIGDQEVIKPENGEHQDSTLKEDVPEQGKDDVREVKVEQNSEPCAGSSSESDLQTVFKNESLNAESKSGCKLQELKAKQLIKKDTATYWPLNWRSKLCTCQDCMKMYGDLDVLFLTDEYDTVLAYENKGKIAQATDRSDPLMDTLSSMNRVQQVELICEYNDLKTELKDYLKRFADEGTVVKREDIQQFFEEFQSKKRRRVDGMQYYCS
UniProt Q01081: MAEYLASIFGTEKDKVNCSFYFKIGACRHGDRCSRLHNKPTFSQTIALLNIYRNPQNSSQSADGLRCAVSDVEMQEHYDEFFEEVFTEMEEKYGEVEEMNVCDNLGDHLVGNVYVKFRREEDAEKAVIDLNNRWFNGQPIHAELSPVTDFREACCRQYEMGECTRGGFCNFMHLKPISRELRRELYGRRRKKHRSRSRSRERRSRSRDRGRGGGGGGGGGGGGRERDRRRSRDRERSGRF
UniProt Q9NRR5, whole entry, looked up: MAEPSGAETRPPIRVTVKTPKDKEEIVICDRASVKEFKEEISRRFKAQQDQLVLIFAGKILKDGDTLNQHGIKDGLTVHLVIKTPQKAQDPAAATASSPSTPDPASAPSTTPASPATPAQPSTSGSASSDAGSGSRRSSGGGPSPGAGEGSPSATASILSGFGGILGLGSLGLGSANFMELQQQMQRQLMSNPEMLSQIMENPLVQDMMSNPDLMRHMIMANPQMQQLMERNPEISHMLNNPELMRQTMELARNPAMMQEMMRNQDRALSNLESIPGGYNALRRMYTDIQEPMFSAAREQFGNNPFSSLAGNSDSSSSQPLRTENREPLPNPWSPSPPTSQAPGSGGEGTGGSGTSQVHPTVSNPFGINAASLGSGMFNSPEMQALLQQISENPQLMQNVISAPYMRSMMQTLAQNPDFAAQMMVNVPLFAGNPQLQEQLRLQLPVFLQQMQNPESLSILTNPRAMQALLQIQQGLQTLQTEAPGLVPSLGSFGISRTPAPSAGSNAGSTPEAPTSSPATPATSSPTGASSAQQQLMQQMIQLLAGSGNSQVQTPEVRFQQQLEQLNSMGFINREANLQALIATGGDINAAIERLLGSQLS
UniProt P51965: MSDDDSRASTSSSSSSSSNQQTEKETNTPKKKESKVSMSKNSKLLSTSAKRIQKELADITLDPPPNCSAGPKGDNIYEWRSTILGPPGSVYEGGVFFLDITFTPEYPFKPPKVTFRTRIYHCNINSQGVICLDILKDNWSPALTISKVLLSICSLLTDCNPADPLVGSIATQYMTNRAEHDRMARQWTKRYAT
UniProt Q9NX01: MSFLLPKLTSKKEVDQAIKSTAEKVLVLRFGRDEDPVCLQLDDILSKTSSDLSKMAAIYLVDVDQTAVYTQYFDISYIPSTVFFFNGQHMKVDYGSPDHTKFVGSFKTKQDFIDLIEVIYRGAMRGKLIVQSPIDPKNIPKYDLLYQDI
UniProt Q9UHD9, whole entry, looked up: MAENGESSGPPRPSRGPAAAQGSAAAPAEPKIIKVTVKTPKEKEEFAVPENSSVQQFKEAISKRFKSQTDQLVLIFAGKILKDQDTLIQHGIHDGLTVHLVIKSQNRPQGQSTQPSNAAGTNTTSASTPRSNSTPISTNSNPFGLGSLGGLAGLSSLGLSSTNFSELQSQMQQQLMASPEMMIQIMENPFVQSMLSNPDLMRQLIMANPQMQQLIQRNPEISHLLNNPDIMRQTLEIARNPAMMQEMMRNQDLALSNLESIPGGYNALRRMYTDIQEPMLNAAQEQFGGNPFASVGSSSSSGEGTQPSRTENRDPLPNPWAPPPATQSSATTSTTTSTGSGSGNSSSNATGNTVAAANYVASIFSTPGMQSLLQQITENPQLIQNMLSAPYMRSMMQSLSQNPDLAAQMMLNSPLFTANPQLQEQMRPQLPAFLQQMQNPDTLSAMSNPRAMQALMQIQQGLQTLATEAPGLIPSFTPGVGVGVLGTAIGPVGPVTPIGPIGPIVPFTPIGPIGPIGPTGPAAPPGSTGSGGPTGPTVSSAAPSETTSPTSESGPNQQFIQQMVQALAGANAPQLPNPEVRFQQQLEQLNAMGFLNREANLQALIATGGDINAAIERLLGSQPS
UniProt Q9BTX7: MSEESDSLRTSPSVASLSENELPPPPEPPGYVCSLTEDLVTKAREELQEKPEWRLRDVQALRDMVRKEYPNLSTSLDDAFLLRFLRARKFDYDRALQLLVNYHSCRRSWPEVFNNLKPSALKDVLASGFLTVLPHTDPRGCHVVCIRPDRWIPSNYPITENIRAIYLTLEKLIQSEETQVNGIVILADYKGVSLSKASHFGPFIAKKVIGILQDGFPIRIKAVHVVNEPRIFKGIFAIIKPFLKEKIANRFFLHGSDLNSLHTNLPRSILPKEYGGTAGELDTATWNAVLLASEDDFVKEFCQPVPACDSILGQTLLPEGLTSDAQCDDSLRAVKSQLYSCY
UniProt Q9BSL1: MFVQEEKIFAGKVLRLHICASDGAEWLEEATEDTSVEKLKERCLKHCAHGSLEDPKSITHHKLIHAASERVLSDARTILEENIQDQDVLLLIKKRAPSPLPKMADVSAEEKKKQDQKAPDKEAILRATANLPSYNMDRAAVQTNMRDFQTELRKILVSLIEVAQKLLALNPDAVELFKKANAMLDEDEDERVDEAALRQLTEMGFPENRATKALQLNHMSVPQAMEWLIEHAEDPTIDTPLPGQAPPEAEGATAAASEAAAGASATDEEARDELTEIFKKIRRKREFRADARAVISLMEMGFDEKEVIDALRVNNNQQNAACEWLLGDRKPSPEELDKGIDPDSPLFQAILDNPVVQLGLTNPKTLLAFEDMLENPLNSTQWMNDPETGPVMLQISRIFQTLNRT
UniProt Q9NUQ3: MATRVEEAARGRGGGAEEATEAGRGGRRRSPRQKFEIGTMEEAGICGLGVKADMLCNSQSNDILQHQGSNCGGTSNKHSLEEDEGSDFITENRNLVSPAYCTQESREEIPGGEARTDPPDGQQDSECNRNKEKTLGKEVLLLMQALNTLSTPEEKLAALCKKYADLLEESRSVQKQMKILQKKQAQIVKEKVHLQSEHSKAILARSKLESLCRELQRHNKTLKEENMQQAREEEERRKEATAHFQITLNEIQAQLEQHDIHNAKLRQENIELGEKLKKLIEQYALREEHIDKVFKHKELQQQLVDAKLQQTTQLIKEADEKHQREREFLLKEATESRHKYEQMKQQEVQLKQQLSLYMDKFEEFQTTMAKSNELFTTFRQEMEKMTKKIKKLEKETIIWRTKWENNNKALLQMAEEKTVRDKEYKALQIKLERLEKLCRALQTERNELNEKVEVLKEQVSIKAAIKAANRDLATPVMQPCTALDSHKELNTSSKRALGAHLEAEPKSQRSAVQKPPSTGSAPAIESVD
UniProt P61088: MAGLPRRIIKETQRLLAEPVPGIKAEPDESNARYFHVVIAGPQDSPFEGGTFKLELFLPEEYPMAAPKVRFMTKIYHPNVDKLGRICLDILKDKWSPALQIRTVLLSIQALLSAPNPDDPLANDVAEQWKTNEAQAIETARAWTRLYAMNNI
UniProt Q5VYS8: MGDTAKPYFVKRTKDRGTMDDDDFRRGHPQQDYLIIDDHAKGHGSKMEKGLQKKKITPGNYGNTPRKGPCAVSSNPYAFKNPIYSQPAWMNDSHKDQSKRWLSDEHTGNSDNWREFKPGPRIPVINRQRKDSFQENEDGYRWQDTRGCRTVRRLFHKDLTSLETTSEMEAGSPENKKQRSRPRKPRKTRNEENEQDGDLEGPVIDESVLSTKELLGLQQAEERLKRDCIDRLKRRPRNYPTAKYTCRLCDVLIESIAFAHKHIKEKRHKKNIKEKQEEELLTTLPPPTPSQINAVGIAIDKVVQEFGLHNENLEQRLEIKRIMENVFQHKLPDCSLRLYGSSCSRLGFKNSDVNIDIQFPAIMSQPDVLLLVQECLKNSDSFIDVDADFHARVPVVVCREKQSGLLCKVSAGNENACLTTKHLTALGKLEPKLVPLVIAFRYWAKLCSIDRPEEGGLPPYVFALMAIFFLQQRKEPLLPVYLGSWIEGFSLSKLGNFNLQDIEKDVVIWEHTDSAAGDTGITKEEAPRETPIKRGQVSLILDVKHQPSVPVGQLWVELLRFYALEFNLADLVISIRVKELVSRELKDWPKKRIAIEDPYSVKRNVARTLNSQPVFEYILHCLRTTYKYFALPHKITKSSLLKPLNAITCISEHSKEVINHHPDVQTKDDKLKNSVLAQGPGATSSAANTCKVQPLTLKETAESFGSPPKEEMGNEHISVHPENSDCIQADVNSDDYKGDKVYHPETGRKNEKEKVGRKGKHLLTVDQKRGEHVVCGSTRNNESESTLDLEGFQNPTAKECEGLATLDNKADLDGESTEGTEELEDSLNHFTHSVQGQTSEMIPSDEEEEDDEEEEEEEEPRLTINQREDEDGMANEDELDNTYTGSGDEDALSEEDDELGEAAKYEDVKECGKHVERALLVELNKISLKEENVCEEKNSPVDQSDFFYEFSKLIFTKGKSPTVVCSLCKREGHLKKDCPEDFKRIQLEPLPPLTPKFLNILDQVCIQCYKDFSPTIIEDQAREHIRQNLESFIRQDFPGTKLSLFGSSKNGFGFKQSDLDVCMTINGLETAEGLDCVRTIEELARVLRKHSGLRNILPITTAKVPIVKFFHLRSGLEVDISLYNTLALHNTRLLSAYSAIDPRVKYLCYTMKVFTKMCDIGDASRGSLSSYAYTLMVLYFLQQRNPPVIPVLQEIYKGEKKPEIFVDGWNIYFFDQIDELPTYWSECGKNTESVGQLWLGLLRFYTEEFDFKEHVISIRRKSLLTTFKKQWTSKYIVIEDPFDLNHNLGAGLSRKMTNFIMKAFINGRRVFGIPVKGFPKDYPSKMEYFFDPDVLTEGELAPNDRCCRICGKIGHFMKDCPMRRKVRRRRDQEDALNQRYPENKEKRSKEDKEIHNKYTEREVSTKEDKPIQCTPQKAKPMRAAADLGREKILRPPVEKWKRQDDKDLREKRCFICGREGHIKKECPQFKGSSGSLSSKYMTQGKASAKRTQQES
UniProt Q9H4B7, whole entry, looked up: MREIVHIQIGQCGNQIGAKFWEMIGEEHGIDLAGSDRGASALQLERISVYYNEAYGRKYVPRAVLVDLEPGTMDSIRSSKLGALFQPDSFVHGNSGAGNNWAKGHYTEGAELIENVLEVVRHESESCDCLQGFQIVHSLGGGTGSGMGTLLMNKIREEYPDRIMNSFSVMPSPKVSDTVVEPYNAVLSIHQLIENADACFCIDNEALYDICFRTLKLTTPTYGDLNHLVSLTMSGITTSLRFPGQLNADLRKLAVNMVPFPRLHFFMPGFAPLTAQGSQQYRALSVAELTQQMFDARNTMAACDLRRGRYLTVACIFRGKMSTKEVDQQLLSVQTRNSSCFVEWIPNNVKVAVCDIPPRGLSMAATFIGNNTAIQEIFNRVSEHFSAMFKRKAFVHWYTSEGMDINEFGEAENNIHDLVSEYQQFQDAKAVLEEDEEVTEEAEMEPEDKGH
UniProt Q7Z6J8: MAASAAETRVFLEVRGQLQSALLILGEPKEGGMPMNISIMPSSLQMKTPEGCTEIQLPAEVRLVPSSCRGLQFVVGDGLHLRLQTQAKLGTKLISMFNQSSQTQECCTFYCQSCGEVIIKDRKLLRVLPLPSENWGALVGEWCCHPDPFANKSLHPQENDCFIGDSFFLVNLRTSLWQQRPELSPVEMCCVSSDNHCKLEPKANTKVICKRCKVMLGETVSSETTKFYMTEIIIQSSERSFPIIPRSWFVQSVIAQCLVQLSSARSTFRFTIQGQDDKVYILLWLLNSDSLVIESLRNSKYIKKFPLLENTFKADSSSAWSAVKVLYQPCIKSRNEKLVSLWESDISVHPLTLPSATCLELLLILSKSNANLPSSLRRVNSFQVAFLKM
UniProt P61086: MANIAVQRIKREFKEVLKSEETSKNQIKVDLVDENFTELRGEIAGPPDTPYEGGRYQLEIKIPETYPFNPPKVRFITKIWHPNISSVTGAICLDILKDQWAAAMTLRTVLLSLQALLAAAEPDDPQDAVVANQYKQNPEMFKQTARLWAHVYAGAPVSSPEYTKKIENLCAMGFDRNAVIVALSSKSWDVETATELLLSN
UniProt P61081: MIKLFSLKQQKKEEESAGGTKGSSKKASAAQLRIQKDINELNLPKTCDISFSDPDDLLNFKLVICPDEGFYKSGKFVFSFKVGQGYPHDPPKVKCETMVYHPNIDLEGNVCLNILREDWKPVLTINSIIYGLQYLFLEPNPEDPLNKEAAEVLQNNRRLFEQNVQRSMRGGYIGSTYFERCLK
UniProt P10599: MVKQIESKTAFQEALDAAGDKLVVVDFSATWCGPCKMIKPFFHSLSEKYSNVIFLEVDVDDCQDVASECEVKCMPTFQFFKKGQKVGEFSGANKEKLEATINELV

Tests used:
Assay in all cases: log2 fold change, soluble protein after heating vs DMSO (PISA); higher = thermal stabilisation; K562 lysate, 10 uM; active = over 0.2 and 3.5 SD of the protein, either way, in both replicates (recomputed)
nilotinib = compound: Cc1cn(-c2cc(NC(=O)c3ccc(C)c(Nc4nccc(-c5cccnc5)n4)c3)cc(C(F)(F)F)c2)cn1 [nilotinib]
How it was run: (§1)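 Following dounce homogenisation of K562 pellets in PBS pH 7.4 with 1 mM MgCl2, crude extract at 1 mg/mL protein was incubated for 30 min with 10 μM compound. Aliquots were then heated for 3 min over 48°C-58°C and pooled, NP-40 was added to 0.5% at 4°C, and soluble protein was recovered as the supernatant at 21,000xg for 90 min. Channel-sum-equalised TMTpro 16plex LC-MS/MS quantified this protein. Each value, from duplicates, is a log-two fold change in thermal stability relative to solvent controls.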

[1] = compound: Cc1nc(Nc2n[nH]c3c2CN(C(=O)N[C@H](CN(C)C)c2ccccc2)C3(C)C)c2sccc2n1
How it was run: as §1

dasatinib = compound: Cc1nc(Nc2ncc(C(=O)Nc3c(C)cccc3Cl)s2)cc(N2CCN(CCO)CC2)n1 [dasatinib]
How it was run: as §1

[2] = compound: Cc1ncc(-c2ccnc(Nc3ccc(S(C)(=O)=O)cc3)n2)n1C(C)C
How it was run: as §1

[3] = compound: Cn1cc(-c2ccc3c(c2)CCN3C(=O)Cc2cccc(C(F)(F)F)c2)c2c(N)ncnc21
How it was run: as §1

quisinostat = compound: Cn1cc(CNCC2CCN(c3ncc(C(=O)NO)cn3)CC2)c2ccccc21 [quisinostat]
How it was run: as §1

tipifarnib = compound: Cn1cncc1[C@@](N)(c1ccc(Cl)cc1)c1ccc2c(c1)c(-c1cccc(Cl)c1)cc(=O)n2C [tipifarnib]
How it was run: as §1

[4] = compound: NC(=O)Nc1cc(-c2cccc(F)c2)sc1C(=O)N[C@H]1CCCNC1
How it was run: as §1

[5] = compound: NC(=O)c1cnc(N[C@@H]2CCCC[C@@H]2N)nc1Nc1cccc(-n2nccn2)c1
How it was run: as §1

[6] = compound: NC1(c2ccc(-c3nc4ccn5c(=O)[nH]nc5c4cc3-c3ccccc3)cc2)CCC1
How it was run: as §1

Measured: log2 fold change

UBR7 (UniProt Q8N806)
inactive: nilotinib -0.017 | [1] 0.093 | dasatinib 0.017 | [2] 0.016 | [3] -0.02 | quisinostat 0.008 | tipifarnib -0.017 | [4] -0.044 | [5] 0.021 | [6] -0.002

U2AF1 isoform 2 (UniProt Q01081)
inactive: nilotinib 0.026 | [1] -0.016 | dasatinib -0.086 | [2] 0.019 | [3] -0.066 | quisinostat -0.074 | tipifarnib 0.002 | [4] -0.03 | [5] -0.009 | [6] 0.004

U2AF2 (UniProt P26368)
inactive: nilotinib 0.045 | [1] -0.079 | dasatinib 0.004 | [2] 0 | [3] 0.001 | quisinostat 0.03 | tipifarnib 0.047 | [4] -0.102 | [5] 0.006 | [6] 0.027

TYMS (UniProt P04818)
inactive: nilotinib 0.012 | [1] -0.032 | dasatinib -0.023 | [2] -0.015 | [3] 0.01 | quisinostat -0.001 | tipifarnib -0.02 | [4] 0.034 | [5] 0.015 | [6] -0.032

UBQLN4 (UniProt Q9NRR5)
inactive: nilotinib 0.014 | [1] 0.036 | dasatinib 0 | [2] 0.02 | [3] -0.012 | quisinostat -0.016 | tipifarnib -0.01 | [4] 0.01 | [5] -0.029 | [6] -0.031

UBE2E1 (UniProt P51965)
inactive: nilotinib 0.045 | [1] 0.017 | dasatinib 0.034 | [2] 0.134 | [3] -0.025 | quisinostat 0.207 | tipifarnib -0.007 | [4] -0.011 | [5] -0.076 | [6] 0.122

UBR3 isoform 4 (UniProt Q6ZT12)
inactive: nilotinib 0.003 | [1] -0.033 | dasatinib -0.026 | [2] -0.005 | [3] 0.014 | quisinostat -0.069 | tipifarnib -0.009 | [4] 0.036 | [5] -0.032 | [6] -0.039

TXNL4B (UniProt Q9NX01)
inactive: nilotinib -0.047 | [1] -0.094 | dasatinib 0.021 | [2] -0.031 | [3] 0.041 | quisinostat -0.022 | tipifarnib 0.126 | [4] -0.07 | [5] 0.259 | [6] -0.051

TUFM (UniProt P49411)
inactive: nilotinib 0.024 | [1] -0.016 | dasatinib -0.012 | [2] -0.013 | [3] 0.054 | quisinostat -0.022 | tipifarnib 0.018 | [4] 0.087 | [5] 0.031 | [6] -0.023

TUBB3 (UniProt Q13509)
inactive: nilotinib 0.029 | [1] -0.028 | dasatinib -0.027 | [2] -0.003 | [3] 0.024 | quisinostat -0.004 | tipifarnib -0.013 | [4] 0.039 | [5] 0.006 | [6] 0.006

UBQLN2 (UniProt Q9UHD9)
inactive: nilotinib 0.013 | [1] 0.037 | dasatinib 0.02 | [2] 0.073 | [3] 0.017 | quisinostat -0.023 | tipifarnib 0.01 | [4] -0.005 | [5] 0.018 | [6] -0.021

TTPAL (UniProt Q9BTX7)
inactive: nilotinib 0 | [1] -0.006 | dasatinib 0.073 | [2] 0.011 | [3] -0.052 | quisinostat -0.043 | tipifarnib 0.058 | [4] 0.03 | [5] -0.02 | [6] 0.055

UBAC1 (UniProt Q9BSL1)
inactive: nilotinib 0.003 | [1] 0.011 | dasatinib -0.013 | [2] -0.019 | [3] 0.018 | quisinostat -0.028 | tipifarnib 0 | [4] -0.01 | [5] 0.021 | [6] -0.021

TXLNG (UniProt Q9NUQ3)
inactive: nilotinib 0.009 | [1] -0.008 | dasatinib 0.019 | [2] -0.001 | [3] 0.007 | quisinostat 0.025 | tipifarnib 0.011 | [4] -0.008 | [5] -0.006 | [6] 0.015

UBE2N (UniProt P61088)
inactive: nilotinib 0.034 | [1] -0.048 | dasatinib -0.008 | [2] 0.07 | [3] -0.013 | quisinostat 0.009 | tipifarnib 0.048 | [4] -0.046 | [5] -0.001 | [6] 0.037

UBR4 (UniProt Q5T4S7)
inactive: nilotinib 0.007 | [1] 0.002 | dasatinib -0.027 | [2] 0.001 | [3] 0.018 | quisinostat -0.014 | tipifarnib -0.001 | [4] 0.023 | [5] -0.005 | [6] -0.001

UBA6
inactive: nilotinib 0.018 | [1] 0.016 | dasatinib -0.021 | [2] 0.019 | [3] 0.011 | quisinostat -0.012 | tipifarnib 0.007 | [4] 0.029 | [5] 0.011 | [6] -0.014

2 neighbouring entries from above, quoted:
TXLNG (UniProt Q9NUQ3)
inactive: nilotinib 0.009 | [1] -0.008 | dasatinib 0.019 | [2] -0.001 | [3] 0.007 | quisinostat 0.025 | tipifarnib 0.011 | [4] -0.008 | [5] -0.006 | [6] 0.015

UBE2N (UniProt P61088)
inactive: nilotinib 0.034 | [1] -0.048 | dasatinib -0.008 | [2] 0.07 | [3] -0.013 | quisinostat 0.009 | tipifarnib 0.048 | [4] -0.046 | [5] -0.001 | [6] 0.037

Going on with the list.

UBAP1 (UniProt Q9NZ09)
inactive: nilotinib -0.003 | [1] -0.048 | dasatinib -0.005 | [2] 0.038 | [3] 0.014 | quisinostat -0.013 | tipifarnib -0.095 | [4] 0.028 | [5] 0.083 | [6] 0.044

TUT7 (UniProt Q5VYS8)
inactive: nilotinib 0.002 | [1] 0.019 | dasatinib 0.042 | [2] 0.042 | [3] -0.144 | quisinostat -0.028 | tipifarnib -0.006 | [4] -0.051 | [5] 0.002 | [6] 0.057

UBAP2 (UniProt Q5T6F2)
inactive: nilotinib -0.093 | [1] 0.008 | dasatinib -0.042 | [2] 0.021 | [3] -0.023 | quisinostat -0.008 | tipifarnib -0.073 | [4] 0.019 | [5] 0.016 | [6] 0.029

TUBB1 (UniProt Q9H4B7)
inactive: nilotinib 0.095 | [1] -0.013 | dasatinib -0.043 | [2] -0.004 | [3] 0.002 | quisinostat 0.079 | tipifarnib 0.03 | [4] 0.009 | [5] -0.006 | [6] -0.019

UBE3D (UniProt Q7Z6J8)
inactive: nilotinib 0.011 | [1] -0.022 | dasatinib -0.012 | [2] -0.07 | [3] -0.051 | quisinostat -0.045 | tipifarnib 0.027 | [4] 0.049 | [5] -0.001 | [6] 0.002

UBE2K (UniProt P61086)
inactive: nilotinib 0.059 | [1] 0.012 | dasatinib 0.015 | [2] 0.067 | [3] -0.029 | quisinostat 0 | tipifarnib 0.013 | [4] -0.026 | [5] 0.016 | [6] -0.006

UBE4A isoform 2 (UniProt Q14139)
inactive: nilotinib 0.023 | [1] -0.009 | dasatinib -0.075 | [2] -0.022 | [3] 0.026 | quisinostat -0.018 | tipifarnib -0.003 | [4] 0.054 | [5] 0.002 | [6] 0.017

UBE2M (UniProt P61081)
inactive: nilotinib 0.014 | [1] -0.02 | dasatinib -0.053 | [2] 0.007 | [3] 0.016 | quisinostat 0.063 | tipifarnib 0.006 | [4] -0.041 | [5] 0.001 | [6] 0.008

TXN (UniProt P10599)
inactive: nilotinib 0.006 | [1] -0.035 | dasatinib 0.05 | [2] 0.006 | [3] 0.005 | quisinostat 0.056 | tipifarnib 0.01 | [4] -0.017 | [5] 0.002 | [6] 0.007

UBA5 (UniProt Q9GZZ9)
inactive: nilotinib -0.051 | [1] 0.027 | dasatinib 0.027 | [2] -0.067 | [3] -0.001 | quisinostat 0.015 | tipifarnib 0.059 | [4] 0.005 | [5] 0.014 | [6] 0.019
